Results are given in words; binding and its absence hold for the method and conditions named.

Chains of the proteins cited; added tags and fusions are not shown. Residues count along the entry.
UniProt Q9UMY4, residues 27-159: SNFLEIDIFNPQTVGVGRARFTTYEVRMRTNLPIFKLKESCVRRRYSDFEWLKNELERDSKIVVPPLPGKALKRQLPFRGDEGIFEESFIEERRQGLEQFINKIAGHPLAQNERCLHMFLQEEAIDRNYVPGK

The target of test [1] is PX domain of SNX12 (UniProt Q9UMY4). The test is described as follows: NMR peak widths; 1H,15N resolved NMR spectra, 298 K; in solution or when bound to PI3P molecules; both purified.
Test [2] shares this target. The test is described as follows: AUC; sedimentation velocity, two-sector cell, 129,024 x g for 17 h at 4 °C, absorbance at 280 nm, in the buffer used for NMR experiments; c(s) by SEDFIT; both purified.

For the substance “PX domain of SNX12 (from UniProt Q9UMY4 27-159) (domain or fragment)”, the binding result in the test with PX domain of SNX12 [1] and in the test with PX domain of SNX12 [2] was “no binding” in each case.
